The results in this text go back to patent publication US10464947B2 (Incyte Corporation, priority 2013, dated 2019).

Counter-ions that a name gives are not always drawn.

In general, IC50 refers to the concentration that gives 50% inhibition.

This test deals with KMS.12.BM cells. Description: KMS.12.BM Cell Viability Assay (Example B1). The class given is cell-based. Conditions: Homo sapiens, 72 h, read-out: KMS cellular IC50 (nM). The procedure:
KMS.12.BM cell line (human myeloma) was purchased from JCRB (Osaka, Japan) and maintained in RPMI with 10% FBS culture medium. To measure the cytotoxic activity of the compounds through ATP quantitation, the KMS.12.BM cells are plated in the RPMI culture medium at 5000 cells/well/per 100 μL into a 96-well polystyrene clear black tissue culture plate (Greiner-bio-one through VWR, NJ), in the presence or absence of a concentration range of test compounds. After 3 days, […] Cell Titer-GLO Luminescent (Promega, Madison, Wis.) cell culture agent is added to each well for 10 min. at room temperature to stabilize the luminescent signal. This determines the number of viable cells in culture based on quantitation of the ATP present, which signals the presence of metabolically active cells.

Regarding `Cc1noc(C)c1-c1ccc2nc(N3CC[C@@H](N)C3)n3c2c1OC[C@@H]3c1ccccn1` [Example 202A, (3R)-1-[(4S)-7-(3,5-dimethylisoxazol-4-yl)-4-pyridin-2-yl-4,5-dihydroimidazo[1,5,4-de][1,4]benzoxazin-2-yl]pyrrolidin-3-amine trihydrochloride], the IC50 was less than 1000 nM.
With `Cc1noc(C)c1-c1ccc2nc(N3CC[C@H](N)C3)n3c2c1OC[C@@H]3c1ccccn1` [Example 202B, (3S)-1-[(4S)-7-(3,5-dimethylisoxazol-4-yl)-4-pyridin-2-yl-4,5-dihydroimidazo[1,5,4-de][1,4]benzoxazin-2-yl]pyrrolidin-3-amine trihydrochloride], the IC50 was less than 1000 nM.
